# Experimental data as given in PubChem BioAssay AID2517 (National Center for Advancing Translational Sciences (NCATS), 2010).
# Sequences of proteins named here, by UniProt entry; tags and fusion partners are left off.
# UniProt P27695, whole entry, looked up: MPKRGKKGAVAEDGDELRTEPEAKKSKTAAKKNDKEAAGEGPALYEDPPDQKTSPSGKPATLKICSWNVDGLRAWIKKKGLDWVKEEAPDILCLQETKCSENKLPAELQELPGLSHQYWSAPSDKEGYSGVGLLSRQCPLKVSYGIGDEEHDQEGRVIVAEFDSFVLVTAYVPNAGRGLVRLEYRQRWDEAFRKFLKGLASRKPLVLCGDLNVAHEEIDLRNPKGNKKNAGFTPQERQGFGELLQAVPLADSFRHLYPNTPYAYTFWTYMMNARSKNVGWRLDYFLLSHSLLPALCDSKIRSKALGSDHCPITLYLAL
# Values joined by “and” are separate entries in the source; they are usually repeats but may differ in a detail not shown here. Equal values may be shown once. The whole screen tested about 350,000 compounds, of which about 1,200 (0.34%) were called active. Inconclusive results, whose numbers are uncertain, are shown with a selection of clear calls. The call rests on the fitted dose curve; in most records, active means well fitted inhibition curve with a large enough effect; inconclusive means small, poorly fitted or top-dose-only effect; inactive means no such curve, though single readings can be large or run the other way. Where the call is inconclusive, the potency comes from a doubtful curve fit.
# Molecular target: DNA repair nuclease/redox regulator APEX1 (Homo sapiens) (UniProt P27695)
# Assay: qHTS Assay for Inhibitors of the Human Apurinic/apyrimidinic Endonuclease 1 (APE1); further: nearly all actives have a fitted effect of over 55% in size;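 on activity change, negative = inhibition: plate controls were vehicle for no effect and reference inhibitor for full effect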
# Details: recombinant APE1, TAMRA/BHQ-2 abasic DNA cleavage fluorescence; activity change, negative = inhibition: at 65.8 µM (top of the series)
# Method in brief: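 Readout is kinetic fluorescence (ex 525, em 598 nm) from cleavage of 50 nM TAMRA/BHQ-2 THF abasic duplex by 0.75 nM APE1, compound added 15 min beforehand at RT.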
# Potency means the concentration at half of the fitted maximal effect.
Compound,"activity change, negative = inhibition",Potency
O=C1C[C@H](c2ccccc2Cl)N1S(=O)(=O)c1ccccc1[N+](=O)[O-],inactive: -1.52%,
CC(=O)OC[C@]1(OC(C)=O)C[C@@]23CC[C@H]4[C@@](C)(CCC[C@@]4(C)C(=O)O)[C@@H]2CC[C@@H]1C3,,"inconclusive: 7.94 µM [inhibitor, single point]"
Cc1cc(C)cc(NC(=O)C(OC(=O)c2ccc([N+](=O)[O-])o2)c2ccccc2)c1 (stereo not drawn),,"inconclusive: 17.8 µM [inhibitor, partial curve, poor fit]"
O=C(NCCc1cnn(-c2ccccc2)c1)c1cc(COc2c(F)cccc2F)on1,,"inconclusive: 4.47 µM [inhibitor, single point]"
Cc1ccc(/C=C/c2ccc(=O)n(Cc3ccc(Cl)cc3Cl)n2)cc1,,"inconclusive: 44.7 µM [inhibitor, partial curve]"
CN(C)[C@@H](CO)c1nnc([C@H](CCC(=O)O)NC(=O)C2CCNCC2)o1,,"inconclusive: 1 µM [inhibitor, full curve, poor fit]"
O=c1/c(=C/c2ccco2)sc2nc3cc(Br)cnc3n12,inactive: 14.2%,
Cc1cc(-c2csc(NCc3ccccc3)n2)c(C)n1C,inactive: -5.68%,
COc1ccc(CNC(=O)CCSc2nc(-c3ccc4c(c3)OCO4)cc(C(F)(F)F)n2)cc1,,"inconclusive: 8.91 µM [inhibitor, single point]"
Cc1c(-c2cc(C(=O)O)on2)cnn1C,,"inconclusive: 44.7 µM [inhibitor, single point]"
Cc1csc(-c2coc3cc(O[C@@H]4O[C@H](CO)[C@@H](O)[C@@H](O)[C@H]4O)ccc3c2=O)n1,inactive: -2.33%,
COc1ccc(C(=O)c2oc3ccccc3c2N)cc1,,"inconclusive: 44.7 µM [inhibitor, single point]"
FC(F)Oc1ccc(/C=N/NC(=S)Nc2cc(C(F)(F)F)ccc2Cl)cc1,,"inconclusive: 7.08 µM [inhibitor, partial curve]"
Cc1cc(C)c2c(c1)c(C)cc1nnc(SCC(=O)NCc3ccco3)n12,,"inconclusive: 3.98 µM [inhibitor, single point]"
COc1ccc(N(C)C(=O)CC2(CC(=O)O)CCCCC2)cc1,,"inconclusive: 44.7 µM [inhibitor, single point]"
O=C(OCC(=O)N1CCN(C(=O)c2ccco2)CC1)c1cc(-c2ccc(Cl)c(Cl)c2Cl)nc2ccccc12,inactive: 17.2%,
COc1cccc(-c2nnc(NC(=O)Cc3cccs3)s2)c1,,"inconclusive: 35.5 µM [inhibitor, single point]"
CCOc1ccc2nc(Cl)c(C3CC(c4ccccc4)=NN3C(=O)c3cccs3)cc2c1 (stereo not drawn),,"inconclusive: 8.91 µM [inhibitor, single point]"
Cc1ccc(S(=O)(=O)N2CCC(C(=O)N3Cc4ccccc4C3)CC2)cc1,,"inconclusive: 0.501 µM [inhibitor, full curve, poor fit]"
CN1C(=O)/C(=C2\SC(=S)N(CCCCCC(=O)O)C2=O)c2ccccc21,,"inconclusive: 31.6 µM [inhibitor, single point]"
C=CCN1CCc2c(cc(O)c(O)c2Cl)C(c2cccc(C)c2)C1 (stereo not drawn),inactive: 0.196%,

# Complete entries, looked up by structure.
# O=C(NCCc1cnn(-c2ccccc2)c1)c1cc(COc2c(F)cccc2F)on1 is listed as Potency: inconclusive: 4.47 µM [inhibitor, single point]
# Cc1c(-c2cc(C(=O)O)on2)cnn1C is listed as Potency: inconclusive: 44.7 µM [inhibitor, single point]
# Cc1csc(-c2coc3cc(O[C@@H]4O[C@H](CO)[C@@H](O)[C@@H](O)[C@H]4O)ccc3c2=O)n1 is listed as activity change, negative = inhibition: inactive: -2.33%
# COc1ccc(CNC(=O)CCSc2nc(-c3ccc4c(c3)OCO4)cc(C(F)(F)F)n2)cc1 is listed as Potency: inconclusive: 8.91 µM [inhibitor, single point]

# (next part)

Compound,"activity change, negative = inhibition",Potency
C[C@@H]1NC(=O)[C@@H](C)COC(=O)[C@H](C)NC(=O)[C@@H](C)COC1=O,inactive: -11% [at 12.4 µM],
Cc1cc(=O)n(CC(C)C)c(O)c1C#N,,"inconclusive: 1.12 µM [inhibitor, full curve, poor fit]"
COc1ccccc1N(CC(=O)NCc1ccco1)S(=O)(=O)c1ccc(C)cc1,,active: 21.2 µM
O=C(Nc1ccc(S(=O)(=O)Nc2nccs2)cc1)c1nn(-c2ccc(F)cc2)ccc1=O,inactive: -37.1%,
Cn1c(SCc2cc(=O)n3cc(Br)ccc3n2)nnc1C1COc2ccccc2O1 (stereo not drawn),,"inconclusive: 44.7 µM [inhibitor, single point]"
COC(=O)N/N=C/c1cc(Cl)c(OCc2ccccc2F)c(OC)c1,,"inconclusive: 6.31 µM [inhibitor, full curve, poor fit]"
Cc1cc(SCC(=O)N(C)C2CCS(=O)(=O)C2)nc2c(C)cccc12 (stereo not drawn),,"inconclusive: 31.6 µM [inhibitor, partial curve, poor fit]"
Cc1cc(N)n(Cc2cccs2)n1,,"inconclusive: 2.82 µM [inhibitor, partial curve]"
CCOC(=O)C1=C(C)NC(=O)NC1c1ccco1 (stereo not drawn),,"inconclusive: 35.5 µM [inhibitor, partial curve]"
CCN(CC)C(=O)CC(c1ccc2c(c1)OCO2)c1c(OC)cc(OC)c2ccc(=O)oc12 (stereo not drawn),,"inconclusive: 35.5 µM [inhibitor, partial curve] and inconclusive: 22.4 µM [inhibitor, partial curve]"
COC(=O)c1ccc(CS(=O)(=O)c2ccc(F)cc2)o1,inactive: 3.61%,
CCCCCCCCCCCCCCCC(=O)NCCc1ccc(O)c(O)c1,,"inconclusive: 2.24 µM [inhibitor, partial curve]"
C/C(=N\Nc1ccc(Cl)c(C(=O)O)c1)c1cccc([N+](=O)[O-])c1,,"inconclusive: 39.8 µM [inhibitor, single point]"
CCN(CC)P(=O)(Nc1ccc(SC(F)F)cc1)c1ccc(N(C)C)cc1NC(=O)c1ccco1 (stereo not drawn),,"inconclusive: 22.4 µM [inhibitor, partial curve, poor fit]"
CCOC(=O)C1CCCN(C(=O)c2ccc(CNS(=O)(=O)c3ccc(C)cc3)cc2)C1 (stereo not drawn),,"inconclusive: 31.6 µM [inhibitor, single point]"
C#CCn1cc(/C=N/NC(=O)c2cc3ccccc3o2)c2ccccc21,,"inconclusive: 39.8 µM [inhibitor, single point]"
CCCc1cc(SCC(=O)Nc2c(C)n(C)n(-c3ccccc3)c2=O)n2c(nc3ccccc32)c1C#N,,"inconclusive: 20 µM [inhibitor, single point]"
Cc1ccsc1C(=O)C1CCCN(Cc2cc(F)ccc2-n2cccn2)C1 (stereo not drawn),,"inconclusive: 44.7 µM [inhibitor, single point]"
COc1ccc2cc(C(=O)C3CCCN(C(=O)CCc4ccccn4)C3)ccc2c1 (stereo not drawn),,"inconclusive: 39.8 µM [inhibitor, single point]"
COC(=O)c1cccc(-n2c(CCC(=O)O)ccc2-c2cccs2)c1,inactive: -1.95%,
C/C(=C\C(=O)c1ccc(Br)cc1)N1CCCCC1,,"inconclusive: 3.16 µM [inhibitor, single point]"

Compound,"activity change, negative = inhibition",Potency
O=C(c1ccco1)N1C2C=CC(C2)C1(C(F)(F)F)C(F)(F)F (stereo not drawn),,"inconclusive: 22.4 µM [inhibitor, single point]"
COc1cc(S(=O)(=O)Nc2ccc3cn[nH]c3c2)ccc1Cl,,"inconclusive: 39.8 µM [inhibitor, single point]"
Cc1nc2ccc(NC(=S)N3CCCC3)cc2nc1C,inactive: -9.47%,
CCOC(=O)c1cnc(SCC)[nH]c1=O,,"inconclusive: 0.112 µM [inhibitor, full curve, poor fit]"
Cc1cccc(N=C2NC(=O)/C(=C/C=C/c3ccco3)S2)c1,,"inconclusive: 31.6 µM [inhibitor, single point]"
CC(C)S(=O)(=O)c1csc(C(=O)NN)c1Cl,,"inconclusive: 0.0631 µM [inhibitor, full curve, poor fit]"
Cc1cccc(C)c1-n1cccc1/C=C1/C(=N)N2C(=NC1=O)SN=C2S(C)(=O)=O,inactive: -1.16%,
COc1ccc(N2C(=O)[C@@H]3[C@H](C2=O)[C@H]2C=CC=NN2[C@@H]3C(=O)Nc2ccc(Cl)cc2)cc1,,"inconclusive: 44.7 µM [inhibitor, single point]"
COc1ccccc1N1CCN(CC(=O)c2ccc3ccn(C(C)=O)c3c2)CC1,,"inconclusive: 0.199 µM [inhibitor, full curve, poor fit]"
CCOC(=O)CN1CC23C=CC(O2)C(C(=O)NC2CCCC2)C3C1=O (stereo not drawn),,"inconclusive: 12.6 µM [inhibitor, single point]"
C=C(C)C(=O)Nc1cccc(C2=NOC3(C2)C[C@@H](C(N)=O)N(C(=O)/C=C/CC)C3)c1 (stereo partly drawn),inactive: 0.375%,
CCN(CC)C(=O)CC(c1cc(OC)c(OC)c(OC)c1)c1c(O)cc(OC)cc1OC (stereo not drawn),,"inconclusive: 3.55 µM [inhibitor, single point]"
Cc1cc2oc(C(=O)Nc3ccc(S(=O)(=O)Nc4onc(C)c4C)cc3)cc(=O)c2cc1Cl,,"inconclusive: 44.7 µM [inhibitor, single point]"
NC(=O)CN1C(=O)NC(c2ccccc2)(c2ccccc2)C1=O,inactive: -12.4%,
COc1ccc(NCC(=O)n2c(C)c(C)c3ccccc32)cc1,,"inconclusive: 8.91 µM [inhibitor, partial curve]"
Cc1nn(-c2ccccc2)c(Cl)c1/C=C1\SC(=S)N(CCCCCC(=O)O)C1=O,inactive: 0.116%,
O=C(O)COc1ccc(-c2nnn(Cc3ccccc3F)n2)cc1,,"inconclusive: 22.4 µM [inhibitor, single point]"
O=C(CSc1nc2c(cnn2-c2ccccc2)c(=O)[nH]1)N1N=C(c2cccs2)CC1c1ccc(F)cc1 (stereo not drawn),,"inconclusive: 5.01 µM [inhibitor, single point]"
CCN(CC)S(=O)(=O)c1ccc(C)c(NC(=O)CSc2ncc(C(F)(F)F)cc2Cl)c1,inactive: -0.333%,
COC(=O)c1cc(NC(=O)CN(c2ccc(OC)cc2)S(=O)(=O)c2ccc(F)cc2)ccc1Cl,,"inconclusive: 31.6 µM [inhibitor, partial curve]"
Cc1ccc(C2C(C#N)=C(N)OC3=C2C(=O)CCC3)s1 (stereo not drawn),,"inconclusive: 63.1 µM [inhibitor, partial curve, poor fit]"
